# Measurements reported in PMC4895808.
# By UniProt entry, the sequences of proteins in these tests, tags left out.
# UniProt P55200: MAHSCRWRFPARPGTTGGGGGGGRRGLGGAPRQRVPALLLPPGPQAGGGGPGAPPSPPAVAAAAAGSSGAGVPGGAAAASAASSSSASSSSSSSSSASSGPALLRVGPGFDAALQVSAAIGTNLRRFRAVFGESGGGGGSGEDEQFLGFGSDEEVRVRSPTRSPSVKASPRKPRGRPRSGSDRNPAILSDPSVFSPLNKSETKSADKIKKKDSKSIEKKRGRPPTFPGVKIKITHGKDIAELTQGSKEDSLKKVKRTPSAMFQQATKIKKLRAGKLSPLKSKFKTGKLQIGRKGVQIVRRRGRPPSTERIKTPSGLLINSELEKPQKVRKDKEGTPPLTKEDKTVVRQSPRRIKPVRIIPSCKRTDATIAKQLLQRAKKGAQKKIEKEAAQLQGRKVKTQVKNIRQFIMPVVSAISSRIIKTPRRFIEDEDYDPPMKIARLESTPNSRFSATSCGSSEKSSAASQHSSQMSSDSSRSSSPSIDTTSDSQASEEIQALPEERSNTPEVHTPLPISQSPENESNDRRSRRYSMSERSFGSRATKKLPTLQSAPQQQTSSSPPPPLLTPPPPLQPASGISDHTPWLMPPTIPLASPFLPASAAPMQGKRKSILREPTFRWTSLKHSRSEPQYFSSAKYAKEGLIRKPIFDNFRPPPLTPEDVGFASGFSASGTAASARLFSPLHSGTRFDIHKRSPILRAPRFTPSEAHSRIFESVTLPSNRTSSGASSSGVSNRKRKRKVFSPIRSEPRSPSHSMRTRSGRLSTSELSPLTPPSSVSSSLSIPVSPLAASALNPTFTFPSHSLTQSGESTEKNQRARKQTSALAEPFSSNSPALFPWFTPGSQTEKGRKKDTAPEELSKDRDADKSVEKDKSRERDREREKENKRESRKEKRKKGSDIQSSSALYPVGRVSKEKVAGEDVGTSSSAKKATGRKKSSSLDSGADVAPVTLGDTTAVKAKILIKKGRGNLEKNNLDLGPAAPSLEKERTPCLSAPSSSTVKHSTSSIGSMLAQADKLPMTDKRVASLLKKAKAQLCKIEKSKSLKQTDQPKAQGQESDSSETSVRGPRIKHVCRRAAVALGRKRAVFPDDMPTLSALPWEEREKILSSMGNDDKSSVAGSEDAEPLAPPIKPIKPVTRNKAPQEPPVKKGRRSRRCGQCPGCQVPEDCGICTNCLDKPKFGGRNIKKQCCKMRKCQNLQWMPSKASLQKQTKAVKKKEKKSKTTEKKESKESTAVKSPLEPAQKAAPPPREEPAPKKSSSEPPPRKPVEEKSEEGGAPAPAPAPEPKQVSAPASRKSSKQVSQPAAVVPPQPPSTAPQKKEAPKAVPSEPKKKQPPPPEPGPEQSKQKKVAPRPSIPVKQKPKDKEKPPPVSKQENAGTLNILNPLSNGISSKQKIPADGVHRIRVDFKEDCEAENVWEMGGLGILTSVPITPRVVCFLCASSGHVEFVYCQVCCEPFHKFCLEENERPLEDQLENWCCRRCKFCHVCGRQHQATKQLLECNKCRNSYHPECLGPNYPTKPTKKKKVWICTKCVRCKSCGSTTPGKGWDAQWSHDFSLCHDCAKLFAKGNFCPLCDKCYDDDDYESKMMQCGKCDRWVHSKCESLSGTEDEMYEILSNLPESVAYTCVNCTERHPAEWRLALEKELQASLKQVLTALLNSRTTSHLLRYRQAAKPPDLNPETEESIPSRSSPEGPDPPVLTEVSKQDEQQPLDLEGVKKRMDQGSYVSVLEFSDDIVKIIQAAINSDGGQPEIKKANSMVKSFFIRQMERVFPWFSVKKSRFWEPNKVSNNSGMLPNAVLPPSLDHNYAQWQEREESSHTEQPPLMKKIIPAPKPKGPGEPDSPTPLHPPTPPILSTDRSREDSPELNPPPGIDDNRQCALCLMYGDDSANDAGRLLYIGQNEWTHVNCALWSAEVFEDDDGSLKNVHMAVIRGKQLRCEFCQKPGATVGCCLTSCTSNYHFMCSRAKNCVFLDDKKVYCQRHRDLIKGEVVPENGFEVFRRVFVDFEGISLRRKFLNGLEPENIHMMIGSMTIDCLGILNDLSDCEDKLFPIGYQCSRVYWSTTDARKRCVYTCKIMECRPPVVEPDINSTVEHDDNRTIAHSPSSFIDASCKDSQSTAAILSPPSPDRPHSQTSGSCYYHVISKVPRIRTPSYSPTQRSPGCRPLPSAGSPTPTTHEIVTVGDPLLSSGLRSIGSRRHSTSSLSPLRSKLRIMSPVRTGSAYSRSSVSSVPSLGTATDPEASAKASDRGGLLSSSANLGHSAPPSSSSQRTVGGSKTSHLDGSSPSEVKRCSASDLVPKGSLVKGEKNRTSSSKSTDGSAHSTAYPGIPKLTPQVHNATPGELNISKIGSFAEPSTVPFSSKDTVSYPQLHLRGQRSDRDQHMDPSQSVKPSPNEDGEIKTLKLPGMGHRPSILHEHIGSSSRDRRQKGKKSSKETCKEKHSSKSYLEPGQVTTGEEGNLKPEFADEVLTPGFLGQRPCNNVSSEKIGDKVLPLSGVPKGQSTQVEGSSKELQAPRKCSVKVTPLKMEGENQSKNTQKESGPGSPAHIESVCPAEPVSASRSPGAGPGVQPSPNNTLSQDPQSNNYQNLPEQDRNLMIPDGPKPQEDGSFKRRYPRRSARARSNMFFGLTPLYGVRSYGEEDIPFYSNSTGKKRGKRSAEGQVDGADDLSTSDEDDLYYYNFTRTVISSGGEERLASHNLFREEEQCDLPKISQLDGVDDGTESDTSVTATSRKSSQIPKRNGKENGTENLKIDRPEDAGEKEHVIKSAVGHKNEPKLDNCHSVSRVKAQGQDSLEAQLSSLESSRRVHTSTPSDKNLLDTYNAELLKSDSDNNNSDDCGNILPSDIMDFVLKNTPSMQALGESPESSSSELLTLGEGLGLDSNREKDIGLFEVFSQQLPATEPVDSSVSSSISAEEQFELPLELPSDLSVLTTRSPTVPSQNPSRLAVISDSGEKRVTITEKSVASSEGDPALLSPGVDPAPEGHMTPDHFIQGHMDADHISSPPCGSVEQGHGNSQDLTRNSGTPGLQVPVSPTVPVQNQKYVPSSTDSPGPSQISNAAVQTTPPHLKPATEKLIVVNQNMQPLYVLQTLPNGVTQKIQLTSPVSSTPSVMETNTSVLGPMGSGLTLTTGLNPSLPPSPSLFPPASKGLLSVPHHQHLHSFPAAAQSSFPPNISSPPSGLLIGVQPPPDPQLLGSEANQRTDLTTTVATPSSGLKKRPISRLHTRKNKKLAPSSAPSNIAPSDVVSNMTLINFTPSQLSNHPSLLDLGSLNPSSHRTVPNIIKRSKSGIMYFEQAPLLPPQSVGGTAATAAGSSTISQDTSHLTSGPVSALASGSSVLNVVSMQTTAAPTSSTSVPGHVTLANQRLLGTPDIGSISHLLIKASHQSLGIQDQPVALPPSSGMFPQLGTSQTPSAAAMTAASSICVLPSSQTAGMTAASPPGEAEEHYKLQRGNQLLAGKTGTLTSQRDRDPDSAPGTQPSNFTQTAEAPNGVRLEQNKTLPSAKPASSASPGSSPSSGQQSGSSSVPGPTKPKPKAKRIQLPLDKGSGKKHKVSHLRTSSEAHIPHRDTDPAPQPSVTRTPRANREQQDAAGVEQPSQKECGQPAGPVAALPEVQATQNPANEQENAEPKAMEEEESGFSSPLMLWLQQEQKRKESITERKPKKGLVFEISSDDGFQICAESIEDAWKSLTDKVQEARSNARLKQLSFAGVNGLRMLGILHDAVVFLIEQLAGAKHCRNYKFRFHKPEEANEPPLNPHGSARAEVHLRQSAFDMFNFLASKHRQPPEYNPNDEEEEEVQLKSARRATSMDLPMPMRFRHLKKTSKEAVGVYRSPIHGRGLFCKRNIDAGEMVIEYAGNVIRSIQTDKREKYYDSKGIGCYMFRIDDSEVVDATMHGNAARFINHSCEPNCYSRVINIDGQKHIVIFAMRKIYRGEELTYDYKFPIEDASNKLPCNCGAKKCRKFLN
# No constants are given. Whether binding was seen depends on the method and setting. Some entries that bind do so weakly or less than the wild type.
# Target: T1, Tbx1 (mouse (endogenous in P19Cl6)) (UniProt P70323)
# T1 sequence: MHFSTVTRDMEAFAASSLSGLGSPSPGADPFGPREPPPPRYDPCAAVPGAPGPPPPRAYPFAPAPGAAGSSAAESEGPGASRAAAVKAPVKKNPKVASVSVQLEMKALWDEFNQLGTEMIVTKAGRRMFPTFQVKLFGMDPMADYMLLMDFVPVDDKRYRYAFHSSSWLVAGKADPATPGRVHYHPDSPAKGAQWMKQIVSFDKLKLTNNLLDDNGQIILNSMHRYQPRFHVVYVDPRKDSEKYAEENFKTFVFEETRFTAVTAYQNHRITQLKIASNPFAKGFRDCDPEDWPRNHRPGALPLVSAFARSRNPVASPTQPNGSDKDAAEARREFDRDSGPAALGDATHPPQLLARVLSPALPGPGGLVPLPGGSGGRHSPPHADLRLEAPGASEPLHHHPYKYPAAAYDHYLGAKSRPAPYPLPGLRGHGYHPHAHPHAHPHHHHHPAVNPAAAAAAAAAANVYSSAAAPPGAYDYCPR
# Assay: ChIP-western blot; formaldehyde cross-linked, sonicated chromatin of differentiating P19Cl6 cells precipitated with anti-Tbx1 antibody or rabbit IgG (control); immunoprecipitates analysed by western blot; endogenous proteins
row,binding,Substance
1,binds,Kmt2b (from UniProt O08550 1-2713) (enzyme)
2,binds,Kmt2a (from UniProt P55200 1-3966) (enzyme)
